In the supplement of paper PMC8007513 one finds growth data, which are given here for 39 molecules.

The other results are listed elsewhere or left out. Repeats are few or missing, and single values can be far off.

This assay has as its system Saccharomyces cerevisiae BY4743. Kind of assay: growth (OD600) relative to untreated control; higher = less growth inhibition. The conditions noted are these: compound concentration: 133 uM; 20 h. How it is done: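 NMCCC compounds (133 uM, no IPBC) tested alone against Saccharomyces cerevisiae BY4743 in YPD, 96-well plates, starting OD600 ~0.1. Growth was read as OD600 at 20 h and expressed as % of the untreated control. Single pass.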
Consider `CCOC(=O)N1CCN(C(=O)c2cc(-c3ccc(CC)cc3)[nH]n2)CC1`, for which the growth is 73.8%.
The figure for `CN(C)C1(CCCCCC1)CNC(=O)CN2\N=C3\CCCCCN3C2=O` is 103%.
In the case of `CCN(CC)CCn1c2ccccc2c2nc(C)sc21`, the growth was 71.2%.
With `CC1=CC=C(CNC(=O)CC\C2=N\[S](=O)(=O)C3=CC=CC=C3N2)O1` the figure was 103%; with `COc1cc(Cl)c(C)cc1NC(=O)NCc1noc2ccccc12`, 103%.
With `COC(=O)C(OC(=O)c1ccc(Cn2cncn2)cc1)c1ccccc1` (centres undefined) the figure was 108%.
In turn, `CSc1ncc(Cl)c(C(=O)NC2CC3CCC2(C)C3(C)C)n1` (centres undefined) yielded a growth of 102%.
With `COc1ccc(Cc2nnc(SCC(N)=O)n2-c2ccccc2)cc1Cl` the figure was 105%; with `COc1cc(Br)c(CC(=O)Nc2cc(C)ccn2)cc1OC`, 91%; with `CC/1=C/N2C(=O)\C=C(NC3CC(C)(C)NC(C)(C)C3)/N=C2/C=C1`, 101%.
With `CC(=O)c1csc(NC(=O)CCc2ccsc2)n1` the figure was 102%.
With `CC(=O)Nc1c(C)noc1/C=C\c1ccc(C)c(S(=O)(=O)NC2CCCC2)c1` the figure was 108%; with `CCN(CC(=O)NCc1cccs1)C(=O)c1ccc(-n2cccn2)cc1`, 105%.
With `COC(=O)c1cc(NC(=O)Cc2ccc(NC(=O)OC(C)(C)C)cc2)ccc1Cl`, the growth turned out to be 119%.
The figure for `Cc1nc2nc(CCc3ccccc3)nn2c(C)c1Cl` is 102%; for `Cc1nn(CC(C)C)c2sc(C(=O)OCC(=O)NC(=O)NCC(C)C)cc12` it is 88.5%; for `Cc1cc(C)c(S(=O)(=O)N2CCCCC2)cc1N(C)S(=O)(=O)c1ccc(Cl)cc1` it is 103%.
Take `CN(C)c1ccc(CN(Cc2ccco2)C(=O)COc2ccc(F)cc2)cc1`: the growth was determined as 78.1%.
The figure for `COC(=O)c1cc(NC(=O)c2cc(S(N)(=O)=O)ccc2N2CCOCC2)ccc1F` is 92.9%.
With `CSc1ccc(CCNC(=O)CN(C)c2nnc(N3CCCC3=O)s2)cc1` the figure was 109%.
`O=C(CCc1nnc(-c2ccccc2)o1)Nc1ccccc1OC(F)F` registered a growth of 89.8%.
In the case of `CCc1ccc(NS(=O)(=O)c2ccc(C(=O)N(C)C)s2)cc1`, the growth is 104%.
With `CCOC(=O)c1ccc(CSc2nc[nH]n2)o1` the figure was 101%; with `CCn1c(-c2ccc(Br)cc2)cnc1SCC(=O)Nc1ccc(C(N)=O)cc1`, 91.1%.
As for `COc1ccc(C(CC(=O)O)NS(=O)(=O)c2ccc3c(c2)N(C(C)=O)CC(C)O3)cc1` (centres undefined), the growth is 93.5%.
With `CC(Sc1nc(C(C)C)n(-c2ccccc2)n1)C(=O)N1CCNC1=O` (centres undefined) the figure was 107%; with `CCC1CCCCN1C(=O)C(C)OC(=O)c1ccc(-n2cccn2)cc1` (centres undefined), 99.7%.
The figure for `CCC(C)NS(=O)(=O)c1ccc2c(c1)N(C)CCO2` (centres undefined) is 103%; for `Cc1ccc2cc(C(=O)NCCN3CCS(=O)(=O)CC3)c(C)nc2c1` it is 105%.
With `CC1CCCCC1NC(=O)c1cc(S(=O)(=O)N2CCCC2)cn1C` (centres undefined) the figure was 84.3%; with `NC(=O)Nc1cccc(C(=O)N2CCOc3ccccc32)c1`, 97%.
Molecule `COc1cc(OC)c(NS(=O)(=O)c2cc3c(cc2C)N(C(C)=O)CCO3)cc1Cl` returned a growth of 106%.
With `CCCC(=O)Nc1nc2cc(NS(=O)(=O)c3cccs3)ccc2s1` the figure was 112%.
The figure for `COc1cc(NC(=O)NCc2c(C)nn(C)c2C)cc(OC)c1OC` is 96.4%; for `CCN(CC(=O)Nc1ccc(C(=O)Nc2ccc(OC)cc2)cc1)Cc1ccc(Cl)s1` it is 86%; for `Cn1c(CN2CCOCC2)c(C#N)c2ccccc21` it is 103%.
With `COc1ccc(-c2noc(CC(=O)N(CCC#N)c3ccccc3)n2)cc1` the figure was 109%.
Molecule `O=C(NCCO)c1nnc(Cc2ccc3c(c2)OCO3)o1` registered a growth of 93.5%.
With `COC1=CC=C(OC)C(=C1)C(=O)OCC(=O)N\2CC\C(=N2)C3=CC=CC=C3` the figure was 96.5%.
